From patent US20250154123A1, “COOLING COMPOUNDS AND COMPOSITIONS” (V. MANE FILS, priority 2022, published 2025)

Assay: Olfactive description

## CC(C)C1CCC(C)(C)CC1(CO)CO (single isomer, unassigned) [Compound 30, (2-isopropyl-5,5-dimethylcyclohexane-1,1-diyl)dimethanol]
  Olfactive description: Odorless

## CC(C)[C@@H]1CC[C@@H](C)CC1(CO)CO [Compound 1, ((2S,5R)-2-isopropyl-5-methylcyclohexane-1,1-diyl)dimethanol]
  Olfactive description: Almost odorless, fresh

## CC1OCC2(CO1)C[C@H](C)CC[C@H]2C(C)C (stereo partly drawn) [Compound 2, (7S,1OR)-7-isopropyl-3,10-dimethyl-2,4-dioxaspiro[5.5]undecane]
  Olfactive description: Fresh, minty, fruity

## CC(C)[C@@H]1CC[C@@H](C)CC12COC(C)(C)OC2 [Compound 3, (7S,1OR)-7-isopropyl-3,3,10-trimethyl-2,4-dioxaspiro[5.5]undecane]
  Olfactive description: Weak, fresh, woody

## CCC1OCC2(CO1)C[C@H](C)CC[C@H]2C(C)C (stereo partly drawn) [Compound 4, (7S,1OR)-3-ethyl-7-isopropyl-10-methyl-2,4-dioxaspiro[5.5]undecane]
  Olfactive description: Fresh, fruity, exotic

## COc1cc(C2OCC3(CO2)C[C@H](C)CC[C@H]3C(C)C)ccc1O (stereo partly drawn) [Compound 5, 4-((7S,10R)-7-isopropyl-10-methyl-2,4-dioxaspiro[5.5]undecan-3-yl)-2-methoxyphenol]
  Olfactive description: Almost odorless, vanilla

## CC(C)[C@@H]1CC[C@@H](C)CC12COCOC2 [Compound 6, (7S,1OR)-7-isopropyl-10-methyl-2,4-dioxaspiro[5.5]undecane]
  Olfactive description: Weak, red fruits

## CC(C)[C@@H]1CC[C@@H](C)CC12COC1(C[C@H](C)CC[C@H]1C(C)C)OC2 (stereo partly drawn) [Compound 7, (1S,4R,10S,13R)-1,10-diisopropyl-4,13-dimethyl-7,16-dioxadispiro [5.2.5^90.2^6]hexadecane]
  Olfactive description: Odorless

## CC(C)[C@@H]1CC[C@@H](C)CC1(C=O)C=O [Compound 8, (2S,5R)-2-isopropyl-5-methylcyclohexane-1,1-dicarbaldehyde]
  Olfactive description: Fresh, minty

## CC(=O)OCC1(COC(C)=O)C[C@H](C)CC[C@H]1C(C)C [Compound 9, ((2S,5R)-2-isopropyl-5-methylcyclohexane-1,1-diyl)bis(methylene) diacetate]
  Olfactive description: Odorless

## CC1CC(C)(C)CC(CO)(CO)C1 (stereo not drawn) [Compound 10, (3,3,5-trimethylcyclohexane-1,1-diyl)dimethanol]
  Olfactive description: Odorless

## CC1CC(C)(C)CC2(COC(C)OC2)C1 (stereo not drawn) [Compound 11, 3,8,8,10-tetramethyl-2,4-dioxaspiro[5.5]undecane]
  Olfactive description: Woody, ambery, fruity

## CC1CC(C)(C)CC2(COC(C)(C)OC2)C1 (stereo not drawn) [Compound 12, 3,3,8,8,10-pentamethyl-2,4-dioxaspiro[5.5]undecane]
  Olfactive description: Woody, fruity

## CCC1(C)OCC2(CO1)C[C@H](C)CC[C@H]2C(C)C (stereo partly drawn) [Compound 13, (7S,1OR)-3-ethyl-7-isopropyl-3,10-dimethyl-2,4-dioxaspiro[5.5]undecane]
  Olfactive description: Powerful, woody, algae

## CCCC1OCC2(CO1)C[C@H](C)CC[C@H]2C(C)C (stereo partly drawn) [Compound 14, (7S,1OR)-7-isopropyl-10-methyl-3-propyl-2,4-dioxaspiro[5.5]undecane]
  Olfactive description: Cheesy, glue

## CC(C)C1OCC2(CO1)C[C@H](C)CC[C@H]2C(C)C (stereo partly drawn) [Compound 15, (7S,1OR)-3,7-diisopropyl-10-methyl-2,4-dioxaspiro[5.5]undecane]
  Olfactive description: Weak, chocolate

## CCC(C)C1OCC2(CO1)C[C@H](C)CC[C@H]2C(C)C (stereo partly drawn) [Compound 16, (7S,1OR)-3-(sec-butyl)-7-isopropyl-10-methyl-2,4-dioxaspiro[5.5]undecane]
  Olfactive description: Weak, ethereal

## COCC1(COC)C[C@H](C)CC[C@H]1C(C)C [Compound 17, (2S,5R)-2-isopropyl-1,1-bis(methoxymethyl)-5-methylcyclohexane]
  Olfactive description: Fresh, weak, grapefruit

## CC(C)[C@@H]1CC[C@@H](C)CC12COC(c1ccccc1)OC2 (stereo partly drawn) [Compound 18, (7S,1OR)-7-isopropyl-10-methyl-3-phenyl-2,4-dioxaspiro[5.5]undecane]
  Olfactive description: Weak, almond

## CC1(C)CCCC(CO)(CO)C1 [Compound 20, (3,3-dimethylcyclohexane-1,1-diyl)dimethanol]
  Olfactive description: Almost odorless, solvent

## CC(C)[C@@H]1CC[C@@H](C)CC1(COC(=O)CCC(=O)O)COC(=O)CCC(=O)O [Compound 21, 4,4′-((((2S,5R)-2-isopropyl-5-methylcyclohexane-1,1-diyl)bis (methylene))bis(oxy))bis(4-oxobutanoic acid)]
  Olfactive description: Odorless

## CC(C)[C@@H]1CC[C@@H](C)CC12COC(C)(c1ccccc1)OC2 (stereo partly drawn) [Compound 22, (7S,1OR)-7-isopropyl-3,10-dimethyl-3-phenyl-2,4-dioxaspiro[5.5]undecane]
  Olfactive description: Powdery, vanilla, mimosa

## CC(C)[C@@H]1CC[C@@H](C)CC12COC(c1ccccn1)OC2 (stereo partly drawn) [Compound 23, 2-((7S,10R)-7-isopropyl-10-methyl-2,4-dioxaspiro[5.5]undecan-3-yl) pyridine]
  Olfactive description: Green, mimosa

## CC(C)[C@@H]1CC[C@@H](C)CC12COC(c1cccs1)OC2 (stereo partly drawn) [Compound 24, (7S,1OR)-7-isopropyl-10-methyl-3-(thiophen-2-yl)-2,4-dioxaspiro[5.5]undecane]
  Olfactive description: Weak, green, bread crust

## CSCCC1OCC2(CO1)C[C@H](C)CC[C@H]2C(C)C (stereo partly drawn) [Compound 25, (7S,1OR)-7-isopropyl-10-methyl-3-(2-(methylthio)ethyl)-2,4-dioxaspiro [5.5]undecane]
  Olfactive description: Metallic, garlic, sardine

## CC1OCC2(CCCC(C)(C)C2)CO1 (stereo not drawn) [Compound 26, 3,8,8-trimethyl-2,4-dioxaspiro[5.5]undecane]
  Olfactive description: Camphor, violet, frais

## CCC(C)C1CCCCC1(CO)CO (stereo not drawn) [Compound 27, (2-(sec-butyl)cyclohexane-1,1-diyl)dimethanol]
  Olfactive description: Almost odorless, solvent

## CCOC(=O)C1OCC2(CO1)C[C@H](C)CC[C@H]2C(C)C (stereo partly drawn) [Compound 28, Ethyl (7S,1OR)-7-isopropyl-10-methyl-2,4-dioxaspiro[5.5]undecane-3-carboxylate]
  Olfactive description: Odorless

## CC(C)[C@@H]1CC[C@@H](C)CC1(CCO)CCO [Compound 29, 2,2′-((2S,5R)-2-isopropyl-5-methylcyclohexane-1,1-diyl)bis(ethan-1-ol)]
  Olfactive description: Almost odorless, solvent

## CCC(C)C1CCCCC12COC(C)OC2 (stereo not drawn) [Compound 31, 7-(sec-butyl)-3-methyl-2,4-dioxaspiro[5.5]undecane]
  Olfactive description: Animalic, blackcurrent, ambery

## CC(=O)OCC1(CO)C[C@H](C)CC[C@H]1C(C)C (stereo partly drawn) [Compound 32, ((2S,5R)-1-(hydroxymethyl)-2-isopropyl-5-methylcyclohexyl)methyl acetate]
  Olfactive description: Almost odorless, fresh

## CC1OCC2(CO1)CC(C)(C)CCC2C(C)C (stereo not drawn) [Compound 33, 7-isopropyl-3,10,10-trimethyl-2,4-dioxaspiro[5.5]undecane]
  Olfactive description: Woody, dirty, ambery

## CC(C)[C@@H]1CC[C@@H](C)CC1(C(C)O)C(C)O (stereo partly drawn) [Compound 34, 1,1′-((2S,5R)-2-isopropyl-5-methylcyclohexane-1,1-diyl)bis(ethan-1-ol)]
  Olfactive description: Almost odorless, fresh

## C=C(C)[C@@H]1CC[C@@H](C)C[C@H]1C(CO)CO [Compound 35, 2-((1R,2R,5R)-5-methyl-2-(prop-1-en-2-yl)cyclohexyl)propane-1,3-diol]
  Olfactive description: Almost odorless, aromatic

## C=C(C)[C@@H]1CC[C@@H](C)C[C@H]1C1COC(C)OC1 (stereo partly drawn) [Compound 36, 2-methyl-5-((1R,2R,5R)-5-methyl-2-(prop-1-en-2-yl)cyclohexyl)-1,3-dioxane]
  Olfactive description: Almost odorless, solvent

## CC(C)[C@@H]1CC[C@@H](C)C[C@H]1C(CO)CO [Compound 37, 2-((1R,2S,5R)-2-isopropyl-5-methylcyclohexyl)propane-1,3-diol]
  Olfactive description: Almost odorless, rosy

## CC(C)[C@@H]1CC[C@@H](C)CC1(CO)COCc1ccccc1 (stereo partly drawn) [Compound 38, ((2S,5R)-1-((benzyloxy)methyl)-2-isopropyl-5-methylcyclohexyl) methanol]
  Olfactive description: Almost odorless, solvent

## CC(C)[C@@H]1CC[C@@H](C)CC1(CO)C(=O)O (stereo partly drawn) [Compound 39, (2S,5R)-1-(hydroxymethyl)-2-isopropyl-5-methylcyclohexane-1-carboxylic acid]
  Olfactive description: Almost odorless

## CC1(C)CC(C)(C)CC(CO)(CO)C1 [Compound 40, (3,3,5,5-tetramethylcyclohexane-1,1-diyl)dimethanol]
  Olfactive description: Almost odorless, fresh
